Results are given in words; binding and its absence hold for the method and conditions named. Binding seen in cells or lysates may run through a third protein. Some binding calls cover weakened binding; strength is not graded here.

Chains of the proteins cited; added tags and fusions are not shown.
UniProt P15056: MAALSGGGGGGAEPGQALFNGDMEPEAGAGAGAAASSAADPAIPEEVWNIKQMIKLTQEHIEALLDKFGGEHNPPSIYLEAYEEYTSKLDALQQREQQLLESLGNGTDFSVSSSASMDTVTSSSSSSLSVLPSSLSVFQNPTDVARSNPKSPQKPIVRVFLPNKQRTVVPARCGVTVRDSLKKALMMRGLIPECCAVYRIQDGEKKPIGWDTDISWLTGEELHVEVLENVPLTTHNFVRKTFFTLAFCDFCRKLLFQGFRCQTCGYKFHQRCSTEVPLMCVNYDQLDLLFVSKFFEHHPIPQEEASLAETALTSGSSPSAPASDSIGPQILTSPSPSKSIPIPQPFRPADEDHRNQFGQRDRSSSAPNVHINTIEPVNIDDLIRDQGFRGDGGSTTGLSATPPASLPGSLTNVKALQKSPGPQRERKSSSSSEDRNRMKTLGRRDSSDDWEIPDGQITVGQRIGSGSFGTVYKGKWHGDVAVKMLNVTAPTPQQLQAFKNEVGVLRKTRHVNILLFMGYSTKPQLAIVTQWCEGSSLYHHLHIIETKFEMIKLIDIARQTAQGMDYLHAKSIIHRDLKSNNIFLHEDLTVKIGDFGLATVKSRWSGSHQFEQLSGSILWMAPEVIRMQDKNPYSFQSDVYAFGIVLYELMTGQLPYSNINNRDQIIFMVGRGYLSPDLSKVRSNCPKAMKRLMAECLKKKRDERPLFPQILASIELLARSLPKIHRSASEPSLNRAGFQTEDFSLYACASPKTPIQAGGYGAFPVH
UniProt P29590: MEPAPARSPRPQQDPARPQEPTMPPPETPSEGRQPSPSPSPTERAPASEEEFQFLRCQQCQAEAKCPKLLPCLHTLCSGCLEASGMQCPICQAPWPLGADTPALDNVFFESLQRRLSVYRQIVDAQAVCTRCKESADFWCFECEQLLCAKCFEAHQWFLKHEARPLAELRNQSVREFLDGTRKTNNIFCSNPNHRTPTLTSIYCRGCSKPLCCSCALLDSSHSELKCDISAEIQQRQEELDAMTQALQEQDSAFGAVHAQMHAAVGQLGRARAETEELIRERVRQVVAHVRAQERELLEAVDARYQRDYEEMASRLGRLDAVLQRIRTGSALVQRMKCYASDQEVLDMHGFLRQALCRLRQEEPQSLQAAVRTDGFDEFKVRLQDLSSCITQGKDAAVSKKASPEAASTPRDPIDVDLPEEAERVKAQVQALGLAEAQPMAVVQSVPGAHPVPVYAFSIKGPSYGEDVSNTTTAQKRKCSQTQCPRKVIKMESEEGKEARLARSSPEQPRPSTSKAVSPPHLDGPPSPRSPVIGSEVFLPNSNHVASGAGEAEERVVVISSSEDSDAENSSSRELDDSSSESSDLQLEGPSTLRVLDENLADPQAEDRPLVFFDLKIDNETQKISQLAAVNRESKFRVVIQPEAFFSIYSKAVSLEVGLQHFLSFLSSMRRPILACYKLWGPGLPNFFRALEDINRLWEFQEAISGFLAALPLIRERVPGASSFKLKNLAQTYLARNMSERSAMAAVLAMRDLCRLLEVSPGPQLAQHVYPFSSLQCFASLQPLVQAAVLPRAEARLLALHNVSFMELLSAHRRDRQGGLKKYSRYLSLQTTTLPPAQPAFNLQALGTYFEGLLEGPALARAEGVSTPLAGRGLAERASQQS

For test [1], the target named is protein phosphatase 1α (PP1α), catalytic subunit, endogenous in PC3 cells (human (endogenous in PC3)) (UniProt P62136). The experiment in a line: co-IP; endogenous proteins from PC3 cell lysate (50 mM Tris pH 7.5, 10% glycerol, 5 mM MgCl2, 150 mM NaCl, 0.2% NP-40); anti-PML, anti-PP1α or anti-B-Raf antibody overnight at 4 °C, protein G sepharose, immunoblot.
The target in another test is T1, Rb (UniProt P06400).
T1 sequence: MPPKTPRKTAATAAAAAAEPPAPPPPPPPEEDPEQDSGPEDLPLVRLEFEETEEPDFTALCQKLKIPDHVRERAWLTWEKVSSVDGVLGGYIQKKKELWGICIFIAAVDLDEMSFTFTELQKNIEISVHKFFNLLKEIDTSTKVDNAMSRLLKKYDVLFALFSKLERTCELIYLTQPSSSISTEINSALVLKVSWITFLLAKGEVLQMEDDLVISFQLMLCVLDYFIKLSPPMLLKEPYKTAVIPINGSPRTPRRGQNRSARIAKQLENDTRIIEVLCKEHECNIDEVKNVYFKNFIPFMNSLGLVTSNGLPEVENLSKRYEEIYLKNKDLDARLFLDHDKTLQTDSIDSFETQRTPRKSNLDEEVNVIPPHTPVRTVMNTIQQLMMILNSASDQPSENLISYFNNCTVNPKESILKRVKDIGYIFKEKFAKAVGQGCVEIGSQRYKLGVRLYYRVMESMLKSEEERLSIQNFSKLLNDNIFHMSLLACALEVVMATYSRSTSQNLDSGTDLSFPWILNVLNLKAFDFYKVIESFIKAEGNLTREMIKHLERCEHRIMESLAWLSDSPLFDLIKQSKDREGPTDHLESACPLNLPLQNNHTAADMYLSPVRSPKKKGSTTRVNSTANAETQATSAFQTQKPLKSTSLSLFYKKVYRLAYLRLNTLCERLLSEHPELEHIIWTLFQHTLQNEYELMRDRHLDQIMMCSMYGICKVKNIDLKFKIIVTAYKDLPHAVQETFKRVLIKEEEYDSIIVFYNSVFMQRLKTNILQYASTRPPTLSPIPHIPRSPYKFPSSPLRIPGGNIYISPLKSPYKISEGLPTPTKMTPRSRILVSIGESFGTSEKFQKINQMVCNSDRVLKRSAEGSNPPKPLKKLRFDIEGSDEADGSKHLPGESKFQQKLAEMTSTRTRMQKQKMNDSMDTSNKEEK
The experiment in a line: co-IP; Supplementary Fig. 2g; legend not shown; anti-Rb is listed among the antibodies used for immunoprecipitation from cell lysates.

The target of test [2] is B-Raf, endogenous in PC3 cells (human (endogenous in PC3)) (UniProt P15056). The experiment in a line: co-IP; endogenous proteins from PC3 cell lysate (50 mM Tris pH 7.5, 10% glycerol, 5 mM MgCl2, 150 mM NaCl, 0.2% NP-40); anti-PML, anti-PP1α or anti-B-Raf antibody overnight at 4 °C, protein G sepharose, immunoblot. (In western blotting, separated proteins are transferred to a membrane and probed.)

Test [3] concerns the target promyelocytic leukemia (PML) tumor suppressor, endogenous in PC3 cells (human (endogenous in PC3)) (UniProt P29590). The test is described as above.

With “B-Raf, endogenous in PC3 cells (from UniProt P15056 1-766)”, the binding result in test [1] is given as “binds”. On the same count and under the same terms, the entry for “C-Raf, endogenous in PC3 cells (from UniProt P04049 1-648)” is “no binding”. For “PP1α in the Rb binding experiment of Supplementary Fig. 2g (from UniProt P62136 1-330)”, the binding entry with Rb was “binds”. With “promyelocytic leukemia (PML) tumor suppressor, endogenous in PC3 cells (from UniProt P29590 1-882)”, the binding entry in test [1] is “binds”. As for “protein phosphatase 1α (PP1α), catalytic subunit, endogenous in PC3 cells (from UniProt P62136 1-330)”, the binding result in test [2] and in test [3] was “binds” in each case.
